Reference: patent EP0808626A1, “Use of acetyl-L-carnitine for the treatment of presenile Alzheimer's disease” (Sigma-Tau Industrie Farmaceutiche Riunite S.p.A., priority 1996, dated 1997)
At least one compound was matched to its structure with a doubt left.

Experiments:
patients = conditions: 431 patients, undifferentiated age of onset; treatment year; vs placebo; cited from earlier work
[1] = tested on: patients with Alzheimer's disease; conditions: 130 patients with Alzheimer's disease, undifferentiated age of onset; 1 year; vs placebo; cited from earlier work
early-onset AD patients = experiment: Retrospective meta-analysis of the 8 pooled trials (standardized ranks / logranks, extended Mantel-Haenszel method); assay type: in vivo

CC(=O)O[C@H](CC(=O)[O-])C[N+](C)(C)C [Acetyl L-carnitine, acetyl L-carnitine]
rate of deterioration as regards the main endpoints and most of the secondary endpoints (patients): deteriorated at the same rate | rate of deterioration in preselected primary parameters (or endpoints) [1]: slower rate of deterioration in 13 out of 14 preselected primary parameters | progression of the disease (cognitive and functional efficacy measures) (early-onset AD patients; early-onset AD patients vs early-onset patients on placebo): slower progression of the disease | decline of the selected primary endpoints, particularly ADAS-Cog and CDR (early-onset AD patients; early-onset patients (DSM-IV-R) vs early-onset AD patients treated with placebo): statistically significant slower decline
